Values from PubChem BioAssay AID504764 (Drosophila RNAi Screening Center, 2011)
Purpose: 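Knock-downs that raise or lower a Notch target reporter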 (primary screen). Cell system: Drosophila Kc167 cells. Knock-down reagent: long dsRNA against Drosophila genes. Time to read-out: about 5 days (4 days dsRNA, then 24 h after transfection). Challenge: transfection of constitutively active membrane-tethered Notch lacking the extracellular domain, read 24 h later. Measured: 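Light from a Notch-responsive E(spl)m3 luciferase reporter under active Notch, with control-promoter and no-Notch reporter wells to normalise; raw counts from paired wells a and b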. Scale: induced reporter light, run 1, well a and induced reporter light, run 1, well b: higher = more light from the Notch target reporter with active Notch; control promoter light, run 1, well a and control promoter light, run 1, well b: higher = more light from the viral control promoter (cell number, transfection, viability); uninduced reporter light, run 1, well a: higher = more light from the Notch target reporter without active Notch. Hit rule: 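Hit if the duplicate-averaged log2 ratio of induced to control-promoter light gives a plate-wise z beyond ±2, or induced to uninduced beyond ±1.8; weak-control or discordant-duplicate wells dropped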. Calls: active = modifier hit (raised or lowered Notch signal); inactive = not a hit.
The screen tested about 22,000 reagents; below is a random part of those with a known target gene and a result. In the full data, 403 (1.9%) were called active. 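Unnormalised raw counts per well; ratio z-scores behind the hit calls and whether each hit raises or lowers signal are not deposited.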 A plus sign joins genes that one reagent is predicted to hit. Reagent sequences are not shown. Not stated in the record: the amount of reagent.

target	DRSC id	induced reporter light, run 1, well a	induced reporter light, run 1, well b	control promoter light, run 1, well a	control promoter light, run 1, well b	uninduced reporter light, run 1, well a	Outcome
Prp6	DRSC10724	1.22e5	1.02e5	56685	73195	6855	inactive
CG3735	DRSC04411	1.82e5	2.00e5	1.58e5	1.83e5	13790	inactive
CG12213	DRSC14478	1.38e5	1.19e5	82935	1.09e5	9150	inactive
CG12213	DRSC22109						inactive
sd	DRSC20370	66375	74520	84225	81365	8630	inactive
sd	DRSC21712						inactive
CG42816 + CG42815	DRSC11230	1.64e5	1.76e5	2.14e5	1.96e5	9310	inactive
CG2839	DRSC00544	99250	1.08e5	92685	45135	9305	inactive

Single entries from the list:
CG2839 [DRSC00544], induced reporter light, run 1, well b = 1.08e5
Result for CG12213 [DRSC22109] under “Outcome”: inactive

Additional entries follow:
target	DRSC id	induced reporter light, run 1, well a	induced reporter light, run 1, well b	control promoter light, run 1, well a	control promoter light, run 1, well b	uninduced reporter light, run 1, well a	Outcome
Recs1	DRSC16545	3.07e5	3.32e5	2.88e5	2.84e5	24015	inactive
CG32548	DRSC19627	73685	58120	89610	70755	9510	inactive
CG32548	DRSC19982	99800	1.04e5	65825	55980	11295	inactive
Saf6	DRSC00633	1.60e5	1.56e5	1.66e5	1.50e5	15520	inactive
CG31019	DRSC13994	41335	54905	86365	75685	4955	active
CIAPIN1	DRSC03559	1.92e5	1.83e5	1.82e5	2.22e5	17665	inactive
Nadsyn	DRSC20222	1.37e5	1.60e5	2.49e5	2.04e5	12460	inactive
Ptp36E	DRSC03021	1.96e5	2.31e5	2.23e5	2.40e5	17878	inactive
Nedd4	DRSC11234	1.31e5	1.23e5	1.45e5	1.84e5	6365	inactive
CG32052	DRSC10966	1.74e5	1.26e5	1.65e5	1.58e5	10580	inactive
Tet	DRSC08550	1.07e5	1.10e5	2.59e5	2.23e5	8370	inactive
CG14573	DRSC11734	32950	34940	40500	25235	3290	inactive
